Laboratory results as given in patent publication US20250064809A1, “Inhibitors of Mutant RET Kinases for use in Treating Cancer” (Stemline Therapeutics, Inc., priority 2021, published 2025).
Some results were stated once for a whole list of compounds, not compound by compound.

Test system: G810 mutant RET kinases
Assay: In vitro RET kinase enzyme assay, mutant RET kinases compared to RET WT
Format: biochemical, human
Conditions: G810C, G810R, G810S versus RET WT

CO[C@]1(C(=O)N[C@@H](C)c2ccc(-n3cc(F)cn3)nc2)CC[C@H](c2nc(C)cc(Nc3cc(C)[nH]n3)n2)CC1 [Pralsetinib, pralsetinib]
increase in IC50 values toward the mutant RET kinases: 10-100 fold

COc1ccc(CN2C3CC2CN(c2ccc(-c4cc(OCC(C)(C)O)cn5ncc(C#N)c45)cn2)C3)cn1 [Selpercatinib, selpercatinib]
increase in IC50 values toward the mutant RET kinases: 10-100 fold
